According to article PMC12477100:
No constants are given. Whether binding was seen depends on the method and setting. Binding seen in cells or lysates may run through a third protein. Some results given as binding are weak or reduced against the parent protein; the word gives no strength.

By UniProt entry, the sequences of proteins in these tests, tags left out.
UniProt O94921: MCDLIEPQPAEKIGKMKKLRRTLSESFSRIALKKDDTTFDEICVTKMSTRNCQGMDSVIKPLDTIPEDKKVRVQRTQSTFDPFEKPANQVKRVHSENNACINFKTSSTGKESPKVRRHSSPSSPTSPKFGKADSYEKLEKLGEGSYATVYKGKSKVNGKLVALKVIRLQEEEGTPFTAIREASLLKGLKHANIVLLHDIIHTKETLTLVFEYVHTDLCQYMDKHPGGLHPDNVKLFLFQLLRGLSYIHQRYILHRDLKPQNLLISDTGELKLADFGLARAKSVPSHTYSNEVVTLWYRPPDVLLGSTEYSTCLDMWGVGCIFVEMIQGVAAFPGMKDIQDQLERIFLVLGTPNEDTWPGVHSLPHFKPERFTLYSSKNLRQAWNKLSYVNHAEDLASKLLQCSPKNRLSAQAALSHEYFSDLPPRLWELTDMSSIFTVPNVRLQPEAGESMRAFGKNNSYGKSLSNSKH

Target: small nuclear ribonucleoprotein polypeptide G (human (endogenous in A549)) (UniProt P62308)
Test: co-IP; Co-IP in A549 cells; immunoprecipitation using a SNRPG antibody, blot for the partner

Substance | binding
cyclin-dependent kinase 14 (from UniProt O94921 1-469) | no binding
Wilms tumor 1 (from UniProt P19544 1-449) | binds
